The assay concerns the target T1, soluble extracellular domain of Tie1-Fc (UniProt P35590).
T1 sequence: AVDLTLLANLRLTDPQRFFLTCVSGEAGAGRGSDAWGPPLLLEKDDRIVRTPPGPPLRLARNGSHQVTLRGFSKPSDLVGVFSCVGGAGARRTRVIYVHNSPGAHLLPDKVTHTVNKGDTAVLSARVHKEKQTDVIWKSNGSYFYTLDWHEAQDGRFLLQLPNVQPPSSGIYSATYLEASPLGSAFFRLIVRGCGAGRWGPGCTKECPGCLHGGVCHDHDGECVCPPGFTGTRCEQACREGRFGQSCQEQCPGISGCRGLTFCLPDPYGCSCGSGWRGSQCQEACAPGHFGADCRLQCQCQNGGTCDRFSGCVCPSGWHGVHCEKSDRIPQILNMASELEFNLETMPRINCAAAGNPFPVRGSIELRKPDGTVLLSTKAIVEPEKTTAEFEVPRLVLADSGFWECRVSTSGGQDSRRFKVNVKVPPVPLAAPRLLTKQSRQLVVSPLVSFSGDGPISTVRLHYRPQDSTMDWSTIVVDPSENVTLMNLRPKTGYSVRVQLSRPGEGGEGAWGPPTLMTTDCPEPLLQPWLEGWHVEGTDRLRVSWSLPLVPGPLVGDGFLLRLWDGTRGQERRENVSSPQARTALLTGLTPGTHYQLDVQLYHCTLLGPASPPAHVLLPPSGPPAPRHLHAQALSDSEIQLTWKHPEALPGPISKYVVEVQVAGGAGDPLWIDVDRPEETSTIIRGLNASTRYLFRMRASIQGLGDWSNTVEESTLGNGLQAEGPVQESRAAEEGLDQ
Description: condition: 100 ng variant with 500 ng sTie1-Fc in 500 μl; pull-down; in vitro binding assay: 100 ng of each recombinant protein mixed with 500 ng of sTie1-Fc or sTie2-Fc in 500 μl TBSN (50 mM Tris, 100 mM NaCl, 1.0% Nonidet P-40, pH 7.5), 4 °C, 2 hr; protein-A agarose or streptactin agarose beads 1 hr; immunoblot; both purified.

No constants are given. Whether binding was seen depends on the method and setting. Where a sequence is shown, tags or fusion partners need not be part of it.

On to CMP-Ang1-1 (human) (ligand), for which the binding entry is given as “no binding”.

The record behind these values is PMC4609988.
